Earlier results as cited in patent US20130189727A1, “Methods And Compositions For Cellular Imaging And Cancer Cell Detection Using Light Harvesting Conjugated Polymer-Biomolecular Conjugates” (NATIONAL UNIVERSITY OF SINGAPORE, priority 2010, published 2013).
Some of these results come from one statement about several compounds together. For at least one compound, name, drawing or mass did not settle the structure.

Settings: commercial dyes, comparison; cited from earlier work

SMILES | time to lose fluorescence under CLSM laser illumination
O=C1OC2(c3ccc(O)cc3Oc3cc(O)ccc32)c2ccccc21 [fluorescein] | ≤ 3 min
CCN1/C(=C/C=C/C=C/C2=[N+](CCCCCC(=O)O)c3ccc(S(=O)(=O)O)cc3C2(C)C)C(C)(C)c2cc(S(=O)(=O)[O-])ccc21 [Cy5] | ≤ 3 min
